# Measured values as given in article doi:10.1101/437228.
# Amino acid sequences for entries named in this document (tags omitted).
# UniProt O08539: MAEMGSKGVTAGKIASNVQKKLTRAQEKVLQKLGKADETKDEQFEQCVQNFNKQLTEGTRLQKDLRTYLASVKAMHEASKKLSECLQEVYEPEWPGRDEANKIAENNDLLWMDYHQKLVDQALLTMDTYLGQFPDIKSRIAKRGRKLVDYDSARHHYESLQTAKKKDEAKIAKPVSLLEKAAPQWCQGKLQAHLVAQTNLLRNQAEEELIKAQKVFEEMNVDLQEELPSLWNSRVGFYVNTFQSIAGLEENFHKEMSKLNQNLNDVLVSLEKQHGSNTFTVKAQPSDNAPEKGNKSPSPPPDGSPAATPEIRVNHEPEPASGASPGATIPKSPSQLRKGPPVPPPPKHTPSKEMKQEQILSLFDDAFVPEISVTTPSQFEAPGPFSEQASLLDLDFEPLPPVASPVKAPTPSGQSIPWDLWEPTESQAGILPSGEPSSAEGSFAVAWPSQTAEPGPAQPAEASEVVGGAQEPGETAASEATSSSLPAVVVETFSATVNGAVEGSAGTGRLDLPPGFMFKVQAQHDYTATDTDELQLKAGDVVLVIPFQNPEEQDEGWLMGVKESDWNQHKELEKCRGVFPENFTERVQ
# No constants are given. Whether binding was seen depends on the method and setting. In cells and extracts the contact can be indirect. A yes stands for co-enrichment or nearness to the bait. Other partners may have been found.
# Target: Bin1-HHStag (mouse BIN1 with a twin tag inserted in exon 19, all isoforms tagged) (mouse) (UniProt O08539)
# Experiment: affinity purification with mass spectrometry
row,binding,Binder
1,binds,"Plp1 (protein, UniProt P60202 1-277) MGLLECCARCLVGAPFASLVATGLCFFGVALFCGCGHEALTGTEKLIETYFSKNYQDYEYLINVIHAFQYVIYGTASFFFLYGALLLAEGFYTTGAVRQIFGDYKTTICGKGLSATVTGGQKGRGSRGQHQAHSLERVCHCLGKWLGHPDKFVGITYALTVVWLLVFACSAVPVYIYFNTWTTCQSIAFPSKTSASIGSLCADARMYGVLPWNAFPGKVCGSNLLSICKTAEFQMTFHLFIAAFVGAAATLVSLLTFMIAATYNFAVLKLMGRGTKF"
2,binds,"Mog (protein, UniProt Q61885 29-246) GQFRVIGPGYPIRALVGDEAELPCRISPGKNATGMEVGWYRSPFSRVVHLYRNGKDQDAEQAPEYRGRTELLKETISEGKVTLRIQNVRFSDEGGYTCFFRDHSYQEEAAMELKVEDPFYWVNPGVLTLIALVPTILLQVPVGLVFLFLQHRLRGKLRAEVENLHRTFDPHFLRVPCWKITLFVIVPVLGPLVALIICYNWLHRRLAGQFLEELRNPF"
